# Some of the results follow. Further columns of the screen follow, without active or inactive calls. Compounds called inactive in the main read-out are mostly missing here. The note in brackets gives the kind of curve behind each potency; many fits are weak.
# Experiment: qHTS Assay for Lipid Storage Modulators in Drosophila S3 Cells;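 for cell number change: cells counted by Cell Tracker Red CMTPX staining in the red channel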
# Details: BODIPY lipid droplet fluorescence, 18-24 h; for cell number change: measured here: cell count max response, cells fed with added oleic acid
# How it was run: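 Drosophila S3 cells loaded with oleic acid (400 uM, as added) and compounds at several concentrations; lipid droplets imaged by 488-nm laser-scanning cytometry, 500–530 nm intensity and object ratio to cell channel. Percent activity normalized to 20 uM Triacsin C.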
# [1] = measured here: cell number channel AC50, cells fed with added oleic acid
# [2] = measured here: lipid fluorescence (Fed channel) AC50, cells fed with added oleic acid
SMILES,cell number change,AC50 [1],AC50 [2]
NC(=O)Cn1cnc2nc3n(c2c1=O)CCC3,-28.5%,"0.731 µM [falling, full curve, poor fit]",–
CCN(CC)CCn1c2c(c(SCC(=O)Nc3nc(C)cs3)nc1=O)CCCC2,–,"6.51 µM [rising, partial curve]","16.4 µM [falling, single point]"
CCc1c(C)nc2ccc(Br)cc2c1Cl,-18.2%,–,–
Cc1nc(-c2cccc(NC(=O)c3ccc(-n4nccc4C)cc3)c2)cs1,1.94%,"6.51 µM [rising, single point]",–
Cc1ccnn1CCC(=O)N1CCCC(N2CCN(c3cccc(Cl)c3)CC2)C1 (centres undefined),3.97%,"6.51 µM [rising, single point]",–
NC(=O)C1CCCN(C(=O)CNC(=O)C23CC4CC(CC(C4)C2)C3)C1 (centres undefined),-0.942%,–,"29.1 µM [falling, single point]"
CC(=O)NS(=O)(=O)c1ccc2c(c1)Cc1cc(S(=O)(=O)NC(C)=O)ccc1-2,-27.4%,–,–
COc1cc(OC)cc(C(=O)N2CCN(c3ccccc3F)CC2)c1,1.18%,–,"0.0082 µM [rising, full curve, poor fit]"
CCOC(=O)c1c(-c2cccs2)csc1NC(=O)CSc1ncn[nH]1,94.6%,–,–
Cc1cc(N2CCOCC2)nc2ccc(NC(=S)NCCC(C)C)cc12,-6.94%,"0.82 µM [rising, partial curve, poor fit]",–
CCOC(=O)c1ccc(N=Cc2nc(-c3ccccc3)oc2OC(C)=O)cc1,61.2%,"20.6 µM [rising, single point]",–
Cc1cccc(NC(=O)NC(=S)NC(=O)c2ccccc2)c1,–,–,"29.1 µM [rising, single point]"
CNS(=O)(=O)c1cc(NC(=O)c2cccc3cccnc23)ccc1C,-6.3%,–,–
NC(=O)C1(N2CCCCC2)CCN(C(=O)c2cccs2)CC1,-36.7%,"0.184 µM [falling, full curve]","2.06 µM [falling, full curve]"
O=C(O)c1ccccc1-c1ccccc1C(=O)NCc1cccnc1,7.69%,–,"6.51 µM [falling, single point]"
CCN(CC)C(=O)COc1ccc(-c2nnc(Nc3ccc(OC)c(C(=O)NC)c3)c3ccccc23)cc1,-17.5%,–,"32.6 µM [falling, single point]"
COc1cc2cc(CN(CCc3ccccc3C)C(=S)NCCCN(C)C)c(=O)[nH]c2cc1OC,-17.9%,–,"14.6 µM [falling, single point]"
Cn1c(N)c(C(=O)COC(=O)COc2ccccc2Cl)c(=O)n(C)c1=O,175%,"5.17 µM [rising, full curve]",–
CN1C(CC(=O)Nc2ccc(Cl)cc2Cl)c2ccccc2CC1(C)C (centres undefined),-53.3%,"18.4 µM [falling, single point]","32.6 µM [falling, single point]"
Cc1ccccc1OC(=O)Cn1c(C(F)(F)F)nc2ccccc21,-19.2%,–,–
NC(=S)Cc1nc(-c2ccccc2)cs1,14.2%,–,"23.1 µM [falling, partial curve]"

SMILES,cell number change,AC50 [1],AC50 [2]
CCOc1ccc(NC(=O)CCC(=O)c2ccc(OC)cc2)cc1,-8.52%,–,"29.1 µM [rising, single point]"
C=C(C)C1CC=C(CN2CCC(C(=O)OCC)CC2)CC1 (centres undefined),1.82%,–,"29.1 µM [falling, single point]"
COc1ccc(C(=O)N/C(=C/c2ccco2)C(=O)NC2CCS(=O)(=O)C2)cc1 (centres undefined),–,"0.58 µM [rising, single point]",–
COc1ccc(NC(=O)CCc2nc3ccccc3[nH]2)cc1,33.1%,"29.1 µM [rising, single point]","3.66 µM [rising, full curve]"
CCOC(=O)N1CCC(NC(=S)Nc2ccc3nc(N4CCN(C)CC4)cc(C)c3c2)CC1,22.2%,"2.59 µM [rising, single point]","6.51 µM [rising, single point]"
O=c1cc(-c2ccc([N+](=O)[O-])cc2)nc2cc(-c3ccc(F)cc3)[nH]n12,-35.1%,"0.00461 µM [falling, full curve, poor fit]","20.6 µM [rising, single point]"
O=S(=O)(c1ccc(Cl)c(C(F)(F)F)c1)N1CCN(c2ccccn2)CC1,-14.9%,"0.326 µM [rising, full curve]",–
CCOC(=O)C(CCC#N)(CCC#N)C(=O)OCC,-14.8%,"0.651 µM [falling, full curve, poor fit]","2.59 µM [falling, full curve]"
O=C(CSc1ccc(Cl)cc1)Nc1ccccc1N1CCN(C(=O)c2ccccc2)CC1,0.417%,–,–
COc1ccc(CCC(=O)Nc2cccc(S(=O)(=O)N3CCCCCC3)c2)cc1,4.02%,–,–
COc1ccc(OC)c(C(C(=O)NCc2ccco2)N(C(=O)Cn2nnc3ccccc32)C2CC2)c1 (centres undefined),-4.19%,–,"0.461 µM [rising, full curve, poor fit]"
CCOc1ccc(NC(=O)CCNS(=O)(=O)c2cccc3nsnc23)cc1,15.4%,–,"8.2 µM [rising, partial curve, poor fit]"
Cc1oc(C(C)(C)C)cc1C(=O)Nc1cccc(C(=O)O)c1,-13.9%,–,"0.164 µM [falling, full curve]"
CCc1c(C(C)S(=O)(=O)c2ccccc2)[nH]c(=O)n1CC (centres undefined),-30.6%,"0.651 µM [falling, full curve, poor fit]",–
O=C(NC(=S)Nc1ccc2[nH]c(=O)[nH]c2c1)c1cccc(F)c1,32.8%,–,"6.51 µM [rising, single point]"
CCOc1ccc(NS(=O)(=O)c2cc(OCC(N)=O)c(C)cc2Cl)cc1,34.3%,"2.91 µM [rising, full curve, poor fit]",–
CCN1CCc2c(OCC(=O)Nc3cccc(C)c3C)cccc2C1=O,21.2%,–,–
O=C(Nc1ccc2c(c1)OCO2)c1cc(-c2cccc(O)c2)on1,15.4%,–,"4.61 µM [rising, single point]"
Cc1csc(NC(=O)CSc2nnc(-c3cccnc3)o2)n1,28.1%,–,–
Cc1ccc(S(=O)(=O)Nc2cccc(C(=O)NCC(c3ccco3)N3CCCC3)c2)cc1F (centres undefined),4.61%,–,"23.1 µM [rising, single point]"
CCN(C(=O)CN1CCN(Cc2ccccc2)CC1)c1c(N)n(Cc2ccccc2)c(=O)[nH]c1=O,-26.1%,–,–

SMILES,cell number change,AC50 [1],AC50 [2]
CCN1C(=O)[C@H]2[C@@H](c3ccc(OC)cc3)N3C(=O)CN(Cc4ccccc4)C(=O)[C@@]3(Cc3ccccc3)[C@H]2C1=O,2.4%,–,"0.184 µM [falling, full curve, poor fit]"
COc1ccc(-c2csc(NC(=O)C3=COCCO3)n2)cc1OC,76.1%,"9.2 µM [rising, partial curve]",–
CC(C)(/C=N/O)/[N+]([O-])=C/c1ccco1,-26.2%,"0.651 µM [falling, full curve, poor fit]","4.61 µM [falling, full curve]"
COc1ccccc1C(=O)N1C(CC(=O)Nc2cc(Cl)ccc2C)C(=O)NC2CCCCC21 (centres undefined),-0.0804%,–,–
COc1c(C=O)c(CCN(C)C(=O)c2ccc(F)cc2)cc2c1OCO2,–,–,"29.1 µM [rising, single point]"
Cc1nn(CC(=O)N(C)c2c(N)n(Cc3ccccc3)c(=O)[nH]c2=O)c(C)c1[N+](=O)[O-],6.61%,–,"0.00461 µM [rising, full curve, poor fit]"
CCOC(=O)c1ccccc1NC(=O)C1COc2ccccc2O1 (centres undefined),-25.9%,–,–
COc1cc(CO)c(Br)cc1OCC(N)=O,-47.4%,"29.1 µM [falling, single point]","4.11 µM [falling, partial curve]"
O=C(OCC(=O)c1c[nH]c2ccccc12)C1=COCCO1,–,"0.00461 µM [rising, full curve, poor fit]",–
CCOc1ccc(N2C(=O)C3C(C2=O)C3(c2ccccc2)c2ccccc2)cc1 (centres undefined),-35.6%,"16.4 µM [falling, partial curve]","13 µM [falling, partial curve, poor fit]"
Cc1cc2ncc(C(=O)N=CN(C)C)cn2n1,11.5%,–,–
CC1(C)CC(=O)c2c(O)cc(OCC(=O)N3CCN(c4ccccc4)CC3)cc2O1,8.09%,–,"29.1 µM [falling, single point]"
CCN(CC)Cc1cc(CC(C(N)=O)C(N)=O)ccc1OC,6.14%,–,"0.00461 µM [falling, full curve, poor fit]"
CCCCC(=O)NC(=S)Nc1cc([N+](=O)[O-])ccc1OC,–,–,"3.26 µM [rising, partial curve, poor fit]"
O=C(CSc1ncn[nH]1)Nc1c(F)cc(F)cc1Br,26.4%,–,–
CCN(CC(=O)Nc1cc(Cl)ccc1C)C(=O)CCOc1ccccc1C,-13.9%,–,–
COc1ccc(C(CNC(=O)c2ccc(-c3nc4ccccc4s3)o2)N2CCCC2)cc1 (centres undefined),3.3%,–,"1.84 µM [rising, partial curve, poor fit]"
COc1ccc(-c2cc(C(=O)N3CCCc4ccccc43)no2)cc1,-0.527%,–,"0.0461 µM [rising, full curve, poor fit]"
COc1ccc2[nH]cc(CCn3ccc(O)c(C/C=C/c4ccccc4)c3=O)c2c1,-65.5%,"5.17 µM [falling, partial curve]","2.91 µM [falling, full curve]"
Brc1ccc(-n2cc(-c3ccccc3)c3c(NN4CCOCC4)ncnc32)cc1,19.9%,–,"23.1 µM [rising, partial curve, poor fit]"

# Full records as entered above. Order of values: cell number change | AC50 [1] | AC50 [2]
# Brc1ccc(-n2cc(-c3ccccc3)c3c(NN4CCOCC4)ncnc32)cc1 is entered as 19.9% | – | 23.1 µM [rising, partial curve, poor fit]
# CCOC(=O)c1ccccc1NC(=O)C1COc2ccccc2O1 (centres undefined) is entered as -25.9% | – | –

# — PubChem BioAssay AID2685 (National Center for Advancing Translational Sciences (NCATS), 2010)
